According to doi:10.1101/2022.01.31.478465 (bioRxiv, 2022):
Results are given in words; binding and its absence hold for the method and conditions named. For some assays here: Binding seen in cells or lysates may run through a third protein. Some entries that bind do so weakly or less than the wild type. Values belong to the binder of their own block, whether it stands above or below them.

How the values were obtained:
AtPRP40b, recombinant = biological target: T1, AtPRP40b, recombinant (A. thaliana, UniProt F4JCC1 1-992); assay: pull-down
T1 sequence: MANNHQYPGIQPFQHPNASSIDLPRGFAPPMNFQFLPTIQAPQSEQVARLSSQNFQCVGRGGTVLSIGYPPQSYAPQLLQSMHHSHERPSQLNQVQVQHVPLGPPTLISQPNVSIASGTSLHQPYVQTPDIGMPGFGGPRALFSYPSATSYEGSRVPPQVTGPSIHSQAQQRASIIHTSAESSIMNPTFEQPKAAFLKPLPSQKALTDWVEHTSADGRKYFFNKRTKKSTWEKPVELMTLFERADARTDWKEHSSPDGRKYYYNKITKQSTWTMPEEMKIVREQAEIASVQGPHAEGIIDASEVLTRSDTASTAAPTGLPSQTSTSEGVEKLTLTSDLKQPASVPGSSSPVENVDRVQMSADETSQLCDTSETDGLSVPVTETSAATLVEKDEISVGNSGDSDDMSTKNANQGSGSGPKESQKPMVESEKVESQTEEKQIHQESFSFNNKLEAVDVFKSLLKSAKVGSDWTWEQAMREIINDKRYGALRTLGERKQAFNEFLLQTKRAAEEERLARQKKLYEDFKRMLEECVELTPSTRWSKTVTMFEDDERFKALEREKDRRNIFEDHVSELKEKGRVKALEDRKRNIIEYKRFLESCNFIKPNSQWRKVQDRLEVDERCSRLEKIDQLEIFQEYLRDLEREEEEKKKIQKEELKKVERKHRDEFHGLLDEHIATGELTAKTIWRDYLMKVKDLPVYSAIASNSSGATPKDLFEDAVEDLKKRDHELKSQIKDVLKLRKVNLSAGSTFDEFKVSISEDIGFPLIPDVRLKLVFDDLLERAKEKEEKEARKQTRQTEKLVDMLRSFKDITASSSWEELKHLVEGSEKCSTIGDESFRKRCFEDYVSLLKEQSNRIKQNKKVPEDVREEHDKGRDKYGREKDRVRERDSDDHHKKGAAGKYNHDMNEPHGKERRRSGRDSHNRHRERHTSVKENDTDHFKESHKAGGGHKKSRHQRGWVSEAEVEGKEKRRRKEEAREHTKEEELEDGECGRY

[1] = biological target: T2, AtPRP40b, in nuclei of A. thaliana leaves (A. thaliana (endogenous in leaf nuclei)) (UniProt F4JCC1); assay: proximity ligation
T2 sequence: T1 sequence

binding (AtPRP40b, recombinant): no binding (tested: 2 µg of SE variant)
B1: SE protein lacking forty C-terminal amino acids (SEΔ681-720), recombinant (domain or fragment, UniProt Q9ZVD0 1-680)
chain: MADVNLPPSDSVDNRLPEKSTSSSPPPPPPSSSLPQQEQEQDQQQLPLRRERDSRERRDERDIERPPPNRRERDRSPLPPPRRDYKRRPSLSPPPPYRDRRHSPPQRRSPPQKRYRRDDNGYDGRRGSPRGGYGPPDRRFGYDHGGGYDREMGGRPGYGDERPHGRFMGRYQDWEGGRGGYGDASNSGNPQRDGLMSYKQFIQELEDDILPSEAERRYQEYKSEYITTQKRAFFNTHKEEDWLKNKYHPTNLLSVIERRNDLAQKVAKDFLLDLQSGTLDLGPAVTALNKSGRTSEPNSEDEAAGVGKRKRHGMGGAKENELLSAAPKAPSFTSDPKRILTDVEQTQALVRKLDSEKKIEENVLQGSETEKSGREKLHSGSTGPVVIIRGLTSVKGLEGVELLDTLVTYLWRVHGLDYYGKVETNEAKGLRHVRAEGKVSDAKGDENESKFDSHWQERLKGQDPLEVMAAKEKIDAAATEALDPHVRKIRDEKYGWKYGCGAKGCTKLFHAAEFVYKHLKLKHTELVTELTTKVREELYFQNYMNDPNAPGGQPATQQSGPRDRPIRRKPSMENRLRDDRGGRRERDGRANGNDRNDRSEDQQRGDNDGGNPGEVGYDAFGGQGGVHVPPFLSDINPPPMLMPVPGAGPLGPFVPAPPEVAMQMFRDPSGPNPPFEGSGR

binding [1]: binds
B2: SERRATE (SE), full length, recombinant (natural protein, A. thaliana, UniProt Q9ZVD0 1-720, looked up)
chain: MADVNLPPSDSVDNRLPEKSTSSSPPPPPPSSSLPQQEQEQDQQQLPLRRERDSRERRDERDIERPPPNRRERDRSPLPPPRRDYKRRPSLSPPPPYRDRRHSPPQRRSPPQKRYRRDDNGYDGRRGSPRGGYGPPDRRFGYDHGGGYDREMGGRPGYGDERPHGRFMGRYQDWEGGRGGYGDASNSGNPQRDGLMSYKQFIQELEDDILPSEAERRYQEYKSEYITTQKRAFFNTHKEEDWLKNKYHPTNLLSVIERRNDLAQKVAKDFLLDLQSGTLDLGPAVTALNKSGRTSEPNSEDEAAGVGKRKRHGMGGAKENELLSAAPKAPSFTSDPKRILTDVEQTQALVRKLDSEKKIEENVLQGSETEKSGREKLHSGSTGPVVIIRGLTSVKGLEGVELLDTLVTYLWRVHGLDYYGKVETNEAKGLRHVRAEGKVSDAKGDENESKFDSHWQERLKGQDPLEVMAAKEKIDAAATEALDPHVRKIRDEKYGWKYGCGAKGCTKLFHAAEFVYKHLKLKHTELVTELTTKVREELYFQNYMNDPNAPGGQPATQQSGPRDRPIRRKPSMENRLRDDRGGRRERDGRANGNDRNDRSEDQQRGDNDGGNPGEVGYDAFGGQGGVHVPPFLSDINPPPMLMPVPGAGPLGPFVPAPPEVAMQMFRDPSGPNPPFEGSGRGGPAPFLLSPAFRQDPRRLRSYQDLDAPEEEVTVIDYRSL
